Results as given in US20190194317A1 (FARON PHARMACEUTICALS, published 2019).
These are yes or no findings as the source states them, for the method shown. Some binding calls cover weakened binding; strength is not graded here.

Target: T1, CLEVER-1 coated on the ELISA plate (competition ELISA, Examples 5 and 10) (human) (UniProt Q9NY15)
T1 sequence (looked up): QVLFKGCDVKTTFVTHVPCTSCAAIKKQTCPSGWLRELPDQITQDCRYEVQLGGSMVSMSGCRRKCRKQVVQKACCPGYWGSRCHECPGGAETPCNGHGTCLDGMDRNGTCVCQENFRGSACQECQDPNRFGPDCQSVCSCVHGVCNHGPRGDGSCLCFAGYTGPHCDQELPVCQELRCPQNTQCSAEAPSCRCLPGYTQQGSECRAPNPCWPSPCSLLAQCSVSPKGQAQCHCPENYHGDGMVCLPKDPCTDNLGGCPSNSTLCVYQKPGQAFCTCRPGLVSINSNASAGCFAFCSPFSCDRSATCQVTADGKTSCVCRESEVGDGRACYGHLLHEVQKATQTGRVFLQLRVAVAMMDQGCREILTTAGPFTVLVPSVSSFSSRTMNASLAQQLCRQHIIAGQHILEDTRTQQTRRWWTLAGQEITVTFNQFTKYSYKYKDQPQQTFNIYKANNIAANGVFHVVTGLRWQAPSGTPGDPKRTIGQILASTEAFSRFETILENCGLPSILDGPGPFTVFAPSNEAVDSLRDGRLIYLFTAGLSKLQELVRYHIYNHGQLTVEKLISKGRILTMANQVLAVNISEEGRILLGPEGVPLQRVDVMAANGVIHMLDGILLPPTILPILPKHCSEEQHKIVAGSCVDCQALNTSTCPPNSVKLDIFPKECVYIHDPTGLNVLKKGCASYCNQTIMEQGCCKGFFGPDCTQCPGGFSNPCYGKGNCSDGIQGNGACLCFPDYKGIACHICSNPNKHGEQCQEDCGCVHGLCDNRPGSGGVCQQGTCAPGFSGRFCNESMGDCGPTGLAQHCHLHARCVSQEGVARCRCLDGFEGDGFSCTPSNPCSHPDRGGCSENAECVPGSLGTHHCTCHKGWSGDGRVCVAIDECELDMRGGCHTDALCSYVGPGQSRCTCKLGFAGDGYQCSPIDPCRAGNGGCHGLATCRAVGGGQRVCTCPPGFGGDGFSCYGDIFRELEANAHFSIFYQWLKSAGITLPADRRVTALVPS
Assay: competition ELISA on coated CLEVER-1

binding: binds
B1: chimeric 3-372 IgG4 (antibody, V domains shown)
VH: QVTLKESGPGILQPSQTLSLTCSFSGFSLNTSGMGIGWIRQPSGKGLEWLAHIWWDDDKRYNPALKSRLTISKDTSSNQVFLKIASVDTADTATYYCARHYGYDPYYAMDYWGQGTSVTVSS
VL: QIVLTQSPAIMSASLGERVTMTCTASSSVSSSYLHWYQQRPGSSPKLCIYRTSNLASGVPPRFSGSGSGTSYSLTISSMEAEDAATYYCHQYHRSPPTFGGGTKLEIN
notes: Expressed in NSO cells; also called CH/CK; chimera
